Data on 29 compounds can be found in PubChem BioAssay AID248 (DTP/NCI, 2004).

This experiment has as its system L1210 leukemia ip in BDF1 mice, survival T/C. Briefly: NCI In Vivo Anticancer Drug Screen. Data for tumor model L1210 Leukemia (intraperitoneal) in B6D2F1 (BDF1) mice. To be noted: T/C endpoint: mean survival time, higher T/C = longer survival.
Where [1] appears, read: dose: 200.0 mg/kg/injection, schedule: Q04DX002 (ip), vehicle: Klucel (hydroxypropylcellulose) (HPC).
Setting [2] is: dose: 400.0 mg/kg/injection, schedule: Q04DX002 (ip), vehicle: Klucel (hydroxypropylcellulose) (HPC).
[3] abbreviates: dose: 400.0 mg/kg/injection, schedule: Q04DX003 (ip), vehicle: saline.
Where [4] appears, read: dose: 100.0 mg/kg/injection, schedule: Q04DX002 (ip), vehicle: Klucel (hydroxypropylcellulose) (HPC).
Where [5] appears, read: dose: 200.0 mg/kg/injection, schedule: Q01DX001 (ip), vehicle: saline.
[6] abbreviates: dose: 400.0 mg/kg/injection, schedule: Q01DX001 (ip), vehicle: saline.
The mark [7] stands for this setting: dose: 400.0 mg/kg/injection, schedule: Q01DX009 (ip), vehicle: saline with Tween-80.

The list shows only some results of the screen, not a fair sample: it gathers tests that were run many times, whatever their T/C, doses with no T/C, and many T/C values between a quarter and a half above the control. Other doses and runs of a compound stand elsewhere. T/C: endpoint of the treated group in % of that of the vehicle group. Some entries give survivors of the animals treated and no T/C: the source holds a T/C of zero for them, seemingly a mark for toxic or unscored doses. Some survivor counts are full or nearly so, which does not show that the dose was tolerated: the source hardly ever lists a survival T/C far under the control, and the zero likely stands for such cases as well. Counts of survivors are from the toxicity check (mostly the fifth day) where no day follows; animals may have died later. Schedules are NCI's codes, taken here to give the interval after Q, in days (D) or hours (H), and the number of doses after X. Some doses were run more than once; their values stand side by side, smallest first. Some schedules carry Z or #; the key to these is not given. For survival time, the PubChem record calls one and a half times the control and up active, and a quarter to a half above the control has no call in these data; cut-offs in other NCI protocols can differ. Additions like (4×) count equal records among those shown.

Turning to `Cc1c(C)c(C)c(CN2CCCC2)c(C)c1C`, the survivor count reads like this: (dose: 50.0 mg/kg/injection, schedule: Q01DX005 (ip), vehicle: Klucel (hydroxypropylcellulose) (HPC)) 2 of 3; (dose: 55.0 mg/kg/injection, schedule: Q01DX009 (ip), vehicle: Klucel (hydroxypropylcellulose) (HPC)) 2 of 3; (dose: 80.0 mg/kg/injection, schedule: Q01DX009 (ip), vehicle: Klucel (hydroxypropylcellulose) (HPC)) 1 of 3; under setting [1], 3 of 3; under setting [2], 0 of 3.
As for `COc1ccc(-c2cccc(-c3ccccc3)n2)cc1`, the survivor count (dose: 200.0 mg/kg/injection, schedule: Q04DX003 (ip), vehicle: Klucel (hydroxypropylcellulose) (HPC)) was 2 of 6 and the survivor count (dose: 400.0 mg/kg/injection, schedule: Q04DX003 (ip), vehicle: Klucel (hydroxypropylcellulose) (HPC)) is recorded as 0 of 6.
As for `C[N+](C)(C)c1ncncn1`, the survivor count is 1 of 6 (dose: 100.0 mg/kg/injection, schedule: Q04DX003 (ip), vehicle: saline); 0 of 6 (dose: 200.0 mg/kg/injection, schedule: Q04DX003 (ip), vehicle: saline); 0 of 6 under setting [3].
`Cc1cc(-c2ccc(NC(=O)Nc3cccc(C4=NCCN4)c3)c(C)c2)ccc1NC(=O)Nc1cccc(C2=NCCN2)c1`: the survivor count (dose: 250.0 mg/kg/injection, schedule: Q01DX Z (ip), vehicle: methylcellulose (MC)) was 0 of 6.
Consider `O=[N+]([O-])/C=C/c1ccc(O)cc1`, for which the survivor count runs as follows: (dose: 100.0 mg/kg/injection, schedule: Q01DX015 (ip), vehicle: saline) 0 of 6; (dose: 100.0 mg/kg/injection, schedule: Q04DX003 (ip), vehicle: acetone) 2 of 6; (dose: 200.0 mg/kg/injection, schedule: Q01DX015 (ip), vehicle: saline) 0 of 6.
As to `CN(CCOc1ccccc1O)CCOc1ccccc1O`, the survivor count (dose: 100.0 mg/kg/injection, schedule: Q01DX009 (ip), vehicle: Klucel (hydroxypropylcellulose) (HPC)) is 6 of 6.
On to `CC12CC3CC(C)(C1)CC(SCCN=C(N)CCl)(C3)C2`, for which the survivor count reads like this: under setting [4], 0 of 3; under setting [1], 0 of 3; under setting [2], 0 of 3.
On to `Cc1cc(N(C)C)nc(SCc2ccc(Cl)cc2Cl)n1`, for which the survivor count (dose: 100.0 mg/kg/injection, schedule: Q01DX Z (ip), vehicle: methylcellulose (MC)) is listed as 4 of 6.
Take `C[n+]1cccc(NC(=O)c2ccc(NC(=O)c3ccc(C(=O)Nc4ccc(NC(=N)N)cc4)cc3)cc2)c1`: the T/C was 131 % of control (dose: 0.9 mg/kg/injection, schedule: Q01DX009 (ip), vehicle: saline); 131 % of control (dose: 1.3 mg/kg/injection, schedule: Q01DX009 (ip), vehicle: saline); 149 % of control (dose: 7.5 mg/kg/injection, schedule: Q01DX009 (ip), vehicle: saline); 127 and 137 % of control (dose: 10.0 mg/kg/injection, schedule: Q01DX001 (ip), vehicle: saline); 125 % of control (dose: 10.0 mg/kg/injection, schedule: Q01DX009 (ip), vehicle: saline); 144 % of control (dose: 20.0 mg/kg/injection, schedule: Q01DX001 (ip), vehicle: saline). Moreover, the survivor count (dose: 80.0 mg/kg/injection, schedule: Q01DX001 (ip), vehicle: saline) was 0 of 6 and 3 of 6.
In the case of `NNC(=O)CNc1ccc(F)cc1`, under setting [2], the survivor count is given as 1 of 3.
In the case of `CN(C)CCNCc1ccccc1`, the survivor count runs as follows: (dose: 150.0 mg/kg/injection, schedule: Q01DX001 (ip), vehicle: saline) 2 of 6; under setting [5], 1 of 6; under setting [6], 1 of 6.
In the case of `CC/C(=N/N(C)C)c1ccccc1`, the survivor count under setting [3] is reported as 0 of 6.
`CSc1ccc(NC(=O)Nc2c(C)cc(C)cc2C)cc1`: the survivor count reads like this: (dose: 100.0 mg/kg/injection, schedule: Q01DX009 (ip), vehicle: other) 0 of 6; (dose: 200.0 mg/kg/injection, schedule: Q01DX009 (ip), vehicle: other) 3 of 6; (dose: 400.0 mg/kg/injection, schedule: Q01DX009 (ip), vehicle: other) 0 of 6.
Take `CN(N)c1nc2c(N)ncnc2n1C1OC(CO)C(O)C1O` (centres undefined): the survivor count was 6 of 6 (dose: 100.0 mg/kg/injection, schedule: Q01DX005 (ip), vehicle: saline) and 6 of 6 (dose: 200.0 mg/kg/injection, schedule: Q01DX005 (ip), vehicle: saline).
In the case of `CC/C(=C/C(F)(F)C(F)(F)C(F)(F)F)[N+](=O)[O-]`, the survivor count (dose: 400.0 mg/kg/injection, schedule: Q01DX001 (ip), vehicle: carboxymethylcellulose (CMC)) is 0 of 4.
Turning to `NC(N)=N/N=C/c1cc(Cl)ccc1O`, the survivor count reads like this: (dose: 50.0 mg/kg/injection, schedule: Q04DX002 (ip), vehicle: Klucel (hydroxypropylcellulose) (HPC)) 2 of 3 and 3 of 3; under setting [4], 2 of 3; under setting [1], 0 of 3; under setting [2], 0 of 3.
Regarding `NC(N)=NCCCNCCCN=C(N)N`, the survivor count reads like this: (dose: 280.0 mg/kg/injection, schedule: Q01DX Z (oral), vehicle: saline) 3 of 6; (dose: 560.0 mg/kg/injection, schedule: Q01DX Z (oral), vehicle: saline) 1 of 6.
Consider `CCOC(=O)OC(C#N)c1ccccc1` (centres undefined), for which the survivor count runs as follows: (dose: 50.0 mg/kg/injection, schedule: Q01DX009 (ip), vehicle: saline with Tween-80) 0 of 6; (dose: 100.0 mg/kg/injection, schedule: Q01DX009 (ip), vehicle: saline with Tween-80) 0 of 6; (dose: 200.0 mg/kg/injection, schedule: Q01DX009 (ip), vehicle: saline with Tween-80) 0 of 6; under setting [7], 0 of 6.
Turning to `C#CC1(O)CCCC(C)C1` (centres undefined), under setting [7], the survivor count was 0 of 6.
As to `O=S(=O)(O)NC1CCCCC1`, the survivor count (dose: 200.0 mg/kg/injection, schedule: Q01DX009 (ip), vehicle: acetone) is listed as 2 of 6.
Turning to `N/C(=N\O)c1cccc(/C(N)=N/O)c1`, the survivor count is, setting by setting: under setting [5], 2 of 6; under setting [6], 0 of 6.
Regarding `CN=C(NN(C)C)c1ccc(NC(=O)c2ccc(C(=O)Nc3ccc(C(=NC)NN(C)C)cc3)cc2)cc1`, the T/C (dose: 10.0 mg/kg/injection, schedule: Q01DX Z (ip), vehicle: carboxymethylcellulose (CMC)) is 133 % of control. The survivor count was 0 of 6 (dose: 40.0 mg/kg/injection, schedule: Q01DX Z (ip), vehicle: carboxymethylcellulose (CMC)); 0 of 6 (dose: 80.0 mg/kg/injection, schedule: Q01DX Z (ip), vehicle: carboxymethylcellulose (CMC)); 0 of 6 (dose: 160.0 mg/kg/injection, schedule: Q01DX Z (ip), vehicle: carboxymethylcellulose (CMC)).
Consider `C[n+]1ccn2ccccc21`, for which, under “dose: 200.0 mg/kg/injection, schedule: Q01DX001 (ip), vehicle: saline with Tween-80”, the survivor count is on record as 0 of 6.
Take `CC(C)CCC1=C(O)c2ccccc2C(=O)C1=O`: the survivor count (dose: 70.0 mg/kg/injection, schedule: Q01DX015 (ip), vehicle: water) is 3 of 6.
For `COc1cc(C=O)c([N+](=O)[O-])cc1OC`, the survivor count under setting [6] is 0 of 6.
`Cc1ccc2c(ccc[n+]2C)c1`: where the note is “dose: 300.0 mg/kg/injection, schedule: Q01DX001 (ip), vehicle: saline”, the survivor count is 0 of 6.
As to `CCCCOP(=O)(OCCCC)O/C(C)=C(\C)OP(=O)(OCC)OCC`, the T/C (dose: 100.0 mg/kg/injection, schedule: Q04DX002 (ip), vehicle: saline) was 95, 97 (2×), 101 % of control. For the same compound, the survivor count (dose: 200.0 mg/kg/injection, schedule: Q04DX002 (ip), vehicle: saline) was 3 of 3; the survivor count (dose: 400.0 mg/kg/injection, schedule: Q04DX002 (ip), vehicle: saline) is 2 of 6 and 3 of 3.
`Cc1cc(Cl)cc(CN(C)C)c1O.[Cu+2]`: under setting [6], the survivor count is on record as 0 of 4.
Consider `CCOC1OCN(C(C)C)CC1(C)C` (centres undefined), for which the survivor count (dose: 300.0 mg/kg/injection, schedule: Q01DX009 (ip), vehicle: saline) was 0 of 6.
